Source: the supplement of paper PMC7666118
The other results are listed elsewhere or left out.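 Rule for the calls: active = dose-dependent thermal stabilisation significant by F-test of dose-response against flat model at 10% FDR; inactive = not significant.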

Protein sequences, listed by entry. Tags and fused reporters are not part of them. Lines headed by an entry give the natural chain unless they say otherwise; changes in a name come on top.
UniProt Q9H0S4: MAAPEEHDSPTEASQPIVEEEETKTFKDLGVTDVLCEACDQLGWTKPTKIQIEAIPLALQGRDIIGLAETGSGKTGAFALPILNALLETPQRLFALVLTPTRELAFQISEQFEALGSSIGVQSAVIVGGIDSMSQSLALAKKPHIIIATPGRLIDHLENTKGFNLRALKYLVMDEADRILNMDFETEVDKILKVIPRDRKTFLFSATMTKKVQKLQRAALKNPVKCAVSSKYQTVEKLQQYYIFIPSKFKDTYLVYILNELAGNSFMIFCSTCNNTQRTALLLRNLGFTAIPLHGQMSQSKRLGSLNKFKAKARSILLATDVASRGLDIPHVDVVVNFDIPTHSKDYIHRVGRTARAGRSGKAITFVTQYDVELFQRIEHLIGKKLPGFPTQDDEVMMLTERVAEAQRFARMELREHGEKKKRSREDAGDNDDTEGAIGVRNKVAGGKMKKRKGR
UniProt Q92796: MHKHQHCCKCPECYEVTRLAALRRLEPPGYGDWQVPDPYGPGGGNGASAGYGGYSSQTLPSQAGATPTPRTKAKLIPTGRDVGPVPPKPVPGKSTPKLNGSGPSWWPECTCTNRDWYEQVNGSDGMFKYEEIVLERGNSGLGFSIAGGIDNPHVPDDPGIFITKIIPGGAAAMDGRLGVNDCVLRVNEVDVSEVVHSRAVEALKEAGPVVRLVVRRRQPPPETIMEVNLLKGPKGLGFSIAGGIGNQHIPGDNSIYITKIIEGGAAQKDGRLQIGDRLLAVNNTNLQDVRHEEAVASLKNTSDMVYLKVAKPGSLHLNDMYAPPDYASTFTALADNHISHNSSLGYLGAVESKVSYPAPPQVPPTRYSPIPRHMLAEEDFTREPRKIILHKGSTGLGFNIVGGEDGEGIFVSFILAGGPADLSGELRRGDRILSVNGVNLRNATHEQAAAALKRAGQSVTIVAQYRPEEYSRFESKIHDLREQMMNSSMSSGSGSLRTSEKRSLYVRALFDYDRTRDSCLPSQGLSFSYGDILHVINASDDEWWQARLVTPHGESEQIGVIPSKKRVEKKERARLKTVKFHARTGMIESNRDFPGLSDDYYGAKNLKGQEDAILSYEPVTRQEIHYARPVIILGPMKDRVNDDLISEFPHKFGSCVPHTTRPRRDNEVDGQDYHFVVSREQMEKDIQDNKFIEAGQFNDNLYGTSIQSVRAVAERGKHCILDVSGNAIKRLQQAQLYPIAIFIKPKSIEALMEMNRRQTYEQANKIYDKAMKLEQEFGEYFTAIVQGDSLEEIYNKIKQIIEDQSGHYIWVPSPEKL
UniProt Q2VPK5: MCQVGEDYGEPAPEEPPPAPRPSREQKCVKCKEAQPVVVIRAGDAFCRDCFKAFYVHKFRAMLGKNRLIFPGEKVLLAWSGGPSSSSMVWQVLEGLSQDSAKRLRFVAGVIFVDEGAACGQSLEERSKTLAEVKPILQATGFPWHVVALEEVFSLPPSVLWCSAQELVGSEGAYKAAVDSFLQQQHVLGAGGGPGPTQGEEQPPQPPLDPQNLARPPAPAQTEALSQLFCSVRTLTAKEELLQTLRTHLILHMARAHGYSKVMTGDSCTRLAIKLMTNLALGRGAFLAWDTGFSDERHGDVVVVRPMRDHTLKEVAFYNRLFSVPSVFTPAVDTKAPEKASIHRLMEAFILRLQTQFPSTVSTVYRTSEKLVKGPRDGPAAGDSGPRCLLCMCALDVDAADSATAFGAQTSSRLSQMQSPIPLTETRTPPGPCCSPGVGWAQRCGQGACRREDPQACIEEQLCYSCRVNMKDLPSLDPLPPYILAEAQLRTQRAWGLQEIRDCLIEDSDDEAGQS
UniProt O00148, whole entry: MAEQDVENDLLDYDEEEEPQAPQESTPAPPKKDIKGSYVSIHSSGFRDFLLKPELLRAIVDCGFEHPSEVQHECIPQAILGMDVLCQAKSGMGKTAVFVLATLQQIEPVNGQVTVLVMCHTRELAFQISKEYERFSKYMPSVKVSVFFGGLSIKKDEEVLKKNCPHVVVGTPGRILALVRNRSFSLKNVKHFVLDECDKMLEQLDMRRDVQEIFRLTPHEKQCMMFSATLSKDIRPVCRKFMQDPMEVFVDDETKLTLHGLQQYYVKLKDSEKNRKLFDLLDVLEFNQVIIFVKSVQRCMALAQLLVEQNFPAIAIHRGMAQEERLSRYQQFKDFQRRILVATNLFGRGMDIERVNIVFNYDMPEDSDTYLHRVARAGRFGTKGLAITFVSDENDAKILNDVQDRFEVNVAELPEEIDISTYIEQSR
UniProt Q15398: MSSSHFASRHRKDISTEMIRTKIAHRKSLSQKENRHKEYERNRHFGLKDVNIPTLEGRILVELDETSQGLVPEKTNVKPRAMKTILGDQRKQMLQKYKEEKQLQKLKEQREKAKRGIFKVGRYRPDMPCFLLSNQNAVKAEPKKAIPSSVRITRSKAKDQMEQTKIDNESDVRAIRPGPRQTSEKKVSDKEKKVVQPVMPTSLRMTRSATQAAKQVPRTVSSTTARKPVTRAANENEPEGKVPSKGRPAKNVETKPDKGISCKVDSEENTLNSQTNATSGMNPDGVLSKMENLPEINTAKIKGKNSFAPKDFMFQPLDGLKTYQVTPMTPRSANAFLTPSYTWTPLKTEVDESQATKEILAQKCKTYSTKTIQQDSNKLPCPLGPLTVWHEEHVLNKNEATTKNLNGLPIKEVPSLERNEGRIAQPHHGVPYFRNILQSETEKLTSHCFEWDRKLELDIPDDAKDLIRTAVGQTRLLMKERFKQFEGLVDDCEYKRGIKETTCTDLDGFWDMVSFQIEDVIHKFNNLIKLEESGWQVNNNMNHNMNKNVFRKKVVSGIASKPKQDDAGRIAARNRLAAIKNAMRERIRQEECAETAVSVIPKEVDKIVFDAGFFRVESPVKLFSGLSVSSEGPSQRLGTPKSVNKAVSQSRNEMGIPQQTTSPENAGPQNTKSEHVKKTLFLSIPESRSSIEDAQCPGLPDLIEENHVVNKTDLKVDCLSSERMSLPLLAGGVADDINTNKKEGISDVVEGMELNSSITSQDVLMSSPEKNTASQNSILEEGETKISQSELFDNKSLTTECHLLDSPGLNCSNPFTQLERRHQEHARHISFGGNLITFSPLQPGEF
UniProt P17812: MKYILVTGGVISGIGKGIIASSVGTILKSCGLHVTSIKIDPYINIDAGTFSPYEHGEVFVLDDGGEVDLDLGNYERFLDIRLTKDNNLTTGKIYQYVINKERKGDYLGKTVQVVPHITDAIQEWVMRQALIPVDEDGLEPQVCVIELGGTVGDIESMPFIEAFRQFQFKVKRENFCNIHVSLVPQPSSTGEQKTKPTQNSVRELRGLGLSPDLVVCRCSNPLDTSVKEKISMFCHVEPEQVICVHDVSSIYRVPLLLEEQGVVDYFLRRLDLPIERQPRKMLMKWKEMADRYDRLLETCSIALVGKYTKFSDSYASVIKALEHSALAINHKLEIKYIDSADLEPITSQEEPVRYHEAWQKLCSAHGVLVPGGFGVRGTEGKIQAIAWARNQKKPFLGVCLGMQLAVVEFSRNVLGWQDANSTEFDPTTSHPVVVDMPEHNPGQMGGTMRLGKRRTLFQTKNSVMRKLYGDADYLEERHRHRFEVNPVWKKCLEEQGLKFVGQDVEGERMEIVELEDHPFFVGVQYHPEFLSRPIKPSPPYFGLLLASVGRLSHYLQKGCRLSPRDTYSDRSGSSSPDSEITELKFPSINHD
UniProt P07108: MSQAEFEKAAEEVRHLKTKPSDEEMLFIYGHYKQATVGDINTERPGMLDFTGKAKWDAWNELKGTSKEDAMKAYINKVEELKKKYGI
UniProt Q9P265: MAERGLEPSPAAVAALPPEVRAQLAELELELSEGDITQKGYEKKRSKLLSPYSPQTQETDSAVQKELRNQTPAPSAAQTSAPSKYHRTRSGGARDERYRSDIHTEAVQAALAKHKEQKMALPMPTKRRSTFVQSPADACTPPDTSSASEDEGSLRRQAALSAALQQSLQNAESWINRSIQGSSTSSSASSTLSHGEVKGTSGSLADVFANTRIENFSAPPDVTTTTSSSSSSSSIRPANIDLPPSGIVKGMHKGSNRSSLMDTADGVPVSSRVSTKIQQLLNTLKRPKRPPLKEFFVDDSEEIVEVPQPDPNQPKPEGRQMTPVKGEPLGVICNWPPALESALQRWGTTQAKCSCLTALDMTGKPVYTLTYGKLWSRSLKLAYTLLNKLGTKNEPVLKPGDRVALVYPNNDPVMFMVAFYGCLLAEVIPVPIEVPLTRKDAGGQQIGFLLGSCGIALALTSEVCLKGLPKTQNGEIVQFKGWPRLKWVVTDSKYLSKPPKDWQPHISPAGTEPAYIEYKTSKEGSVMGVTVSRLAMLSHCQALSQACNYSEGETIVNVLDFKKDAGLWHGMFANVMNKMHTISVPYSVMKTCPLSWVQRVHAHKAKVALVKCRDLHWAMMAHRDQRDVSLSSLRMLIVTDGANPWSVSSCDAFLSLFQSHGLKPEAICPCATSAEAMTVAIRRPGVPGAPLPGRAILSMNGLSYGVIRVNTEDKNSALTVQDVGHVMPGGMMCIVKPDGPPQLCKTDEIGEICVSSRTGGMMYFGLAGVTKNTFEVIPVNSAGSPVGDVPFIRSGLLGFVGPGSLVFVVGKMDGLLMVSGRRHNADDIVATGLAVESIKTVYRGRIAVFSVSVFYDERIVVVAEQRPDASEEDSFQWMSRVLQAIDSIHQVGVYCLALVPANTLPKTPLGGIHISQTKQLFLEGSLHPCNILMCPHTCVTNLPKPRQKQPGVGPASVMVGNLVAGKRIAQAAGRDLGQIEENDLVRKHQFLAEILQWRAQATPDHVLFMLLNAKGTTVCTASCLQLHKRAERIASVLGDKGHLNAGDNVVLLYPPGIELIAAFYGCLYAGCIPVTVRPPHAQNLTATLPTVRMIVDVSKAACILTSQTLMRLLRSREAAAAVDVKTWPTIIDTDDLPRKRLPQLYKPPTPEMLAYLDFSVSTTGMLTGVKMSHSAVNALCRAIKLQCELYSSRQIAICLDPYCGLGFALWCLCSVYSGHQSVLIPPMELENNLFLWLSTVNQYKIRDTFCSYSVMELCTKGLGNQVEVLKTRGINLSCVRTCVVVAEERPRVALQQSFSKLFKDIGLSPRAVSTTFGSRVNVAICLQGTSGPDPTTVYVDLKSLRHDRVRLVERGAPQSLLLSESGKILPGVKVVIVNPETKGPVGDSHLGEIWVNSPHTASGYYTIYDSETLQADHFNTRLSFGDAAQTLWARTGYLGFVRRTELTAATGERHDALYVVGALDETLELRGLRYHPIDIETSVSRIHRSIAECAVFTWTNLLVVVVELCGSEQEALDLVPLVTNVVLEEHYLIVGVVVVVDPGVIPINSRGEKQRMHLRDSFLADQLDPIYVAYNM
UniProt P50238: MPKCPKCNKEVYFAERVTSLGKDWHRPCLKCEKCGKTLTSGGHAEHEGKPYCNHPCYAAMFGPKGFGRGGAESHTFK
UniProt Q8TEB1, whole entry: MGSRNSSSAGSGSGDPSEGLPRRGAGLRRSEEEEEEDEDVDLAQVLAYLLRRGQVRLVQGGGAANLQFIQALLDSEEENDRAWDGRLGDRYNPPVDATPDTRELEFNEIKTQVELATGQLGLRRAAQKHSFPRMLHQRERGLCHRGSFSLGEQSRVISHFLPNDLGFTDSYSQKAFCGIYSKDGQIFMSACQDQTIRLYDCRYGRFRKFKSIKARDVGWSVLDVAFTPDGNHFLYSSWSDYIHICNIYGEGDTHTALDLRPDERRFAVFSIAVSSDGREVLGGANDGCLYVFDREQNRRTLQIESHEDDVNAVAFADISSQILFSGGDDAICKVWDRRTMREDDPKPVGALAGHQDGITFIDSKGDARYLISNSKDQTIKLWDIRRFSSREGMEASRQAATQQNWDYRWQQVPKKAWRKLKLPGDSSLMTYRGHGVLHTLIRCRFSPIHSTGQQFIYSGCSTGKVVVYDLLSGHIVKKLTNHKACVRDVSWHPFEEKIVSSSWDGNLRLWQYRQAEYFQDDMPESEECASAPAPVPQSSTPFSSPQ
UniProt Q9H467: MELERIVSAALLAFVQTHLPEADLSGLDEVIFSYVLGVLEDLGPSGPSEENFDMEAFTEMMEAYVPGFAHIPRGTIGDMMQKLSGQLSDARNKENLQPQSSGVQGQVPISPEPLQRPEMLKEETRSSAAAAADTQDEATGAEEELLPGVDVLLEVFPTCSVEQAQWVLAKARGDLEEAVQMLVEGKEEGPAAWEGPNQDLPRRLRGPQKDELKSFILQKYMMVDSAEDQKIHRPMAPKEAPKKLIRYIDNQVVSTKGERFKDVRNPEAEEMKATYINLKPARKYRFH
UniProt P49366: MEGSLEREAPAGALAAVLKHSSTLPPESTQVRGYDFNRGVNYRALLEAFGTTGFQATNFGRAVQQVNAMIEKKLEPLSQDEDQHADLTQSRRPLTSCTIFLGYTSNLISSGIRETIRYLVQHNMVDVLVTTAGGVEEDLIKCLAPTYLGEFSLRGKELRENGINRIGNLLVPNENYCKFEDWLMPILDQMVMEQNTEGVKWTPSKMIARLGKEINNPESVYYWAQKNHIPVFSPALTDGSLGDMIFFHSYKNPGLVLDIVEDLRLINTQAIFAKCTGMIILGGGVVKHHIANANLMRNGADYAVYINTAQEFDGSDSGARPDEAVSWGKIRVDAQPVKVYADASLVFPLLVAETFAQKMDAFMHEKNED

compound: Nc1nc2c(ncn2[C@@H]2O[C@H](COP(=O)(O)OP(=O)(O)OP(=O)(O)O)[C@@H](O)[C@H]2O)c(=O)[nH]1; experiment: dose-dependent thermal stabilisation call (2D-TPP, DLPTP, 10% FDR) (binary (1 = stabilised)); higher = stabilised by the compound; details: system: Jurkat gel-filtered lysate; concentration range 1-500 µM
Method: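 2D thermal proteome profiling in gel-filtered Jurkat E6.1 lysate (2 mg/ml) treated with NaGTP (0, 1, 10, 100, 500 uM) for 10 min at room temperature, then heated 3 min at one of 12 temperatures (42-63.9 C). Soluble protein was quantified by TMT10 MS. The value is the DLPTP call of the paper: dose-dependent thermal stabilisation over all temperatures at 10% FDR (F-test of a dose-response against a flat model); one experiment, one call per tested protein.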

Target	dose-dependent thermal stabilisation call
DNM2 (UniProt P50570)	active: 1
DCLRE1C (UniProt Q96SD1)	inactive: 0
DDX47 (UniProt Q9H0S4)	inactive: 0
EEF1A2 (UniProt Q05639)	inactive: 0
DLG3 (UniProt Q92796)	inactive: 0
DOK1 (UniProt Q99704)	inactive: 0
DNAJA2 (UniProt O60884)	inactive: 0
DBR1 (UniProt Q9UK59)	active: 1
DRG2 (UniProt P55039)	active: 1
CTU2 (UniProt Q2VPK5)	inactive: 0
DDX39A (UniProt O00148)	inactive: 0
ECI2 (UniProt O75521)	inactive: 0
DCK (UniProt P27707)	active: 1
CTR9 (UniProt Q6PD62)	inactive: 0
DLGAP4 (UniProt Q9Y2H0)	inactive: 0
DDX5 (UniProt P17844)	active: 1
DNM1L (UniProt O00429)	active: 1
DCUN1D5 (UniProt Q9BTE7)	active: 1
DCD (UniProt P81605)	inactive: 0
DIDO1 (UniProt Q9BTC0)	inactive: 0

Target	dose-dependent thermal stabilisation call
DRG1 (UniProt Q9Y295)	active: 1
DLGAP5 (UniProt Q15398)	inactive: 0
DXO (UniProt O77932)	inactive: 0
CTNNB1 (UniProt P35222)	inactive: 0
CWF19L1 (UniProt Q69YN2)	inactive: 0
DCAF7 (UniProt P61962)	inactive: 0
DDX1 (UniProt Q92499)	inactive: 0
CTPS1 (UniProt P17812)	inactive: 0
DBI (UniProt P07108)	inactive: 0
DNPEP (UniProt Q9ULA0)	inactive: 0
DIP2B (UniProt Q9P265)	inactive: 0
DIMT1 (UniProt Q9UNQ2)	inactive: 0
CRIP1 (UniProt P50238)	inactive: 0
CYLD (UniProt Q9NQC7)	inactive: 0
DCAF11 (UniProt Q8TEB1)	inactive: 0
CUEDC2 (UniProt Q9H467)	inactive: 0
DUT (UniProt P33316)	inactive: 0
DHPS (UniProt P49366)	inactive: 0
DHX16 (UniProt O60231)	active: 1
DDHD1 (UniProt Q8NEL9)	inactive: 0

A run of entries from further up, as a working copy:
Target	dose-dependent thermal stabilisation call
DLG3 (UniProt Q92796)	inactive: 0
DOK1 (UniProt Q99704)	inactive: 0
